# Measured values taken from article PMC7819943, “Rice protein-binding microarrays: a tool to detect cis-acting elements near promoter regions in rice”.
# Chains of the proteins cited; added tags and fusions are not shown.
# UniProt Q0JBA9, entry or part of it: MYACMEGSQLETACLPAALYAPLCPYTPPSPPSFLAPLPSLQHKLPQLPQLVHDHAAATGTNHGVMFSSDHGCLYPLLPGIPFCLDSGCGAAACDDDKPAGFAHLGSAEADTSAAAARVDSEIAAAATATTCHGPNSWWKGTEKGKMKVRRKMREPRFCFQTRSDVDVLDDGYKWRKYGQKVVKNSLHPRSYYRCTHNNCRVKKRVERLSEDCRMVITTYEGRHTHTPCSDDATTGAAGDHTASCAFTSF
# Some of the results follow.
# Target: OsWRKY34 (Oryza sativa, UniProt Q0JBA9 1-250)
# Assay: protein-binding microarray (RPBM); PBS, 2% BSA, 51.3 ng/ul salmon testes DNA, 50 uM zinc acetate, 200 nM TF, 25 C, 1 h; high values mean tight binding
# Details: protein: recombinant; tags: N-terminal polyhistidine and DsRed monomer fusion (pET32a); label: CyDye5-dUTP incorporated in the synthesized complementary strand; 3' TTTTT single-stranded linker to array surface; dsDNA, one strand shown
# Procedure, shortened: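 Transcription factors, each fused N-terminally to a polyhistidine tag and DsRed, were expressed in E. coli BL21-CodonPlus and purified on Ni–NTA. A custom Agilent array was made double-stranded by primer extension with Cy5-dUTP and blocked with 2% BSA. It was incubated with 200 nM protein in PBS, 2% BSA, salmon testes DNA and 50 µM zinc acetate at 25 °C for 1 h, then washed. The binding signal is per-feature fluorescence intensity (arbitrary units) read on an Axon 4000B scanner.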
row,Sequence,binding signal
1,TATTGTTGGTTGTCCCATTTGATCGAACTGCACAAACTATCGGAGTCACCTAGTGCAG,9580 fluorescence intensity (a.u.)
2,ACGCTAGCATGTGGAGCTCACGTGGGTCCCACGCTGACTCCGGAGTCACCTAGTGCAG,8200 fluorescence intensity (a.u.)
3,AGTACTAGGATATGTCGCATCTGGTGCCAGATTTGTTTTTCGGAGTCACCTAGTGCAG,9370 fluorescence intensity (a.u.)
4,TAGCTTCTTCGGATGTGAACCATCACTCCGGCTCAACAACCGGAGTCACCTAGTGCAG,8750 fluorescence intensity (a.u.)
5,AATTCTCTATCGACACCTACATTATTGACAAAAGCATCTCCGGAGTCACCTAGTGCAG,9420 fluorescence intensity (a.u.)
6,CTGTAAAGTTTGTGTGGGTGGGCTCAGGCCTGTGGTTGTACGGAGTCACCTAGTGCAG,13900 fluorescence intensity (a.u.)
7,AGGTTTTTTCAAAATTTTTAACACAATTGTACTACATTTTCGGAGTCACCTAGTGCAG,8240 fluorescence intensity (a.u.)
8,CCGGTCCAAAGCCTCGTTTGATCATGGTCTTTTGCCAATACGGAGTCACCTAGTGCAG,9640 fluorescence intensity (a.u.)
9,CACGTGGACCACTGTATTCACACTTTTTGATCGATAAGCACGGAGTCACCTAGTGCAG,9020 fluorescence intensity (a.u.)
10,CGCGGTCCTAAATGGGCCAGCCCACTATTTGTTTTGCCCACGGAGTCACCTAGTGCAG,8580 fluorescence intensity (a.u.)
11,GTATTTTAATGTATGACATTGTTGACTTTTTGATTAACGTCGGAGTCACCTAGTGCAG,13000 fluorescence intensity (a.u.)
12,AATATGTGTACGTTTAGTTTCCTGCCAAATTTTGGTAACTCGGAGTCACCTAGTGCAG,8990 fluorescence intensity (a.u.)
13,TCGGTTTAGATTTTGCCTTTTTTTAAGTATGTTTTGCTCACGGAGTCACCTAGTGCAG,8410 fluorescence intensity (a.u.)
14,CTCTCTCTGTTTCTACATAGTTGATACCGTTGATTTTTTACGGAGTCACCTAGTGCAG,10600 fluorescence intensity (a.u.)
15,ACCGCCAAGAGCCAGAGCCCACCCCGCGTCGCGCGCGCAACGGAGTCACCTAGTGCAG,8180 fluorescence intensity (a.u.)
16,CCGGCGAGCCCTCCACCGCCGCCGCCGCCGCCGCGAGATGCGGAGTCACCTAGTGCAG,8350 fluorescence intensity (a.u.)
17,TGTGGAGTTGTGGTGAGTGTTTGACGAATTTTTTTTTTTTCGGAGTCACCTAGTGCAG,8900 fluorescence intensity (a.u.)
18,CGGTTGCGGGTGGGCAGCGGCAGCGTCGCCGGCTGGGGCGCGGAGTCACCTAGTGCAG,9840 fluorescence intensity (a.u.)
19,TTGGGAATATCTATGTTTCAGCAACGTTGACTTAATTGTTCGGAGTCACCTAGTGCAG,14000 fluorescence intensity (a.u.)
20,TTACTACTCTTTTCTTTGCCCATTACTCTACTCCACTGATCGGAGTCACCTAGTGCAG,10300 fluorescence intensity (a.u.)
21,ATCTCTCGCCGCACCGCATCCACGCCGCGTCCCACTTCGCCGGAGTCACCTAGTGCAG,8700 fluorescence intensity (a.u.)

row,Sequence,binding signal
1,TCGTCGCCATCGCCATCGCCGCCGCCGCCGCCGCCGCAGGCGGAGTCACCTAGTGCAG,12600 fluorescence intensity (a.u.)
2,GATTTTCACTTGTGGTCCTAGACTCACCGTCGGCGAAAATCGGAGTCACCTAGTGCAG,8600 fluorescence intensity (a.u.)
3,CCTGTGTGTTGGTGCTGTCGGTATGTGGGTGGTGGTATTTCGGAGTCACCTAGTGCAG,14600 fluorescence intensity (a.u.)
4,CACACATGCGCAGCCGCGCCTCCACTTCTCCTCCACACTTCGGAGTCACCTAGTGCAG,11500 fluorescence intensity (a.u.)
5,CATTTGTTTGTTTGTGTTATTCTCGGTGCACTAAGAATAGCGGAGTCACCTAGTGCAG,9360 fluorescence intensity (a.u.)
6,TACTTAGAAGTCTGTTGGAGGGCTGATTTTTACCAAATTCCGGAGTCACCTAGTGCAG,15100 fluorescence intensity (a.u.)
7,ACTCTTTTTATTTTTGGAGGGTGCTCTATCCAAAGGCCCCCGGAGTCACCTAGTGCAG,8380 fluorescence intensity (a.u.)
8,TTGGCCTTTTGAAAGGCTTGGGTTATATTTGGGCTTTTATCGGAGTCACCTAGTGCAG,9230 fluorescence intensity (a.u.)
9,TGGAGCTGGTTTTTGGGTGGTGTTTTCTCTGTGATCGTGGCGGAGTCACCTAGTGCAG,9760 fluorescence intensity (a.u.)
10,GTCTCATTGTCCTCTAACGTGTGTCACTAACATATAGTTCCGGAGTCACCTAGTGCAG,8100 fluorescence intensity (a.u.)
11,TTTATGTAATATATACTCTCGGACCTGTTTGTTTGTTTTTCGGAGTCACCTAGTGCAG,10200 fluorescence intensity (a.u.)
12,CGCGTCACCACCCTTCCCTTCCCACCACTTTCCTTCTCTCCGGAGTCACCTAGTGCAG,8200 fluorescence intensity (a.u.)
13,GATCAGACACGCCGAAAGTGTCTTCGTCTCTTTCTAATCACGGAGTCACCTAGTGCAG,8820 fluorescence intensity (a.u.)
14,TTACTCTATTCATGGCTTTTCCAAGCTTGTCGTGCCCGTACGGAGTCACCTAGTGCAG,8230 fluorescence intensity (a.u.)
15,GTGGCATCAATTATCTTCTCGACTAGCGTCGCCCAAATCTCGGAGTCACCTAGTGCAG,8040 fluorescence intensity (a.u.)
16,ATGTGTATGATGTGTTTGTTTATGTGTGGACTTTATAATACGGAGTCACCTAGTGCAG,9750 fluorescence intensity (a.u.)
17,TGTTTATCACATGTTTTGTTACGCCAAATGGAGTGCCATTCGGAGTCACCTAGTGCAG,8390 fluorescence intensity (a.u.)
18,CCATTTTCCCTTTTACATGTGTCGAATTTTTATTAGGCTTCGGAGTCACCTAGTGCAG,12700 fluorescence intensity (a.u.)
19,GCACCACCGCCTTCGGTCAATAGGAGTAGGGTTATTACCCCGGAGTCACCTAGTGCAG,8250 fluorescence intensity (a.u.)
20,ACTTTTTTACATGACTTCACTAGATTGCTCATTCTTTCTCCGGAGTCACCTAGTGCAG,8120 fluorescence intensity (a.u.)
21,CCCCTGTGCCACCCCAATTCAATTTTGATTTTTTTTTAAACGGAGTCACCTAGTGCAG,8080 fluorescence intensity (a.u.)

row,Sequence,binding signal
1,GTCGAATCGAATTAACCTTTTATTATTCTTTATTATTTTGCGGAGTCACCTAGTGCAG,9080 fluorescence intensity (a.u.)
2,CTAATTGCATAGACGTAATATTTGTGGACTTTTTTTTTCTCGGAGTCACCTAGTGCAG,12900 fluorescence intensity (a.u.)
3,TGTTGTTTCTATCCATCTCAGGCCAGCTTTGCAAACGACTCGGAGTCACCTAGTGCAG,10900 fluorescence intensity (a.u.)
4,CACTATGATTATTGTTGTTACACTATCAGCCTCTGCTCAACGGAGTCACCTAGTGCAG,8360 fluorescence intensity (a.u.)
5,CCATCCACCATTCACTTTCCCACCTACCTCCACTATTTATCGGAGTCACCTAGTGCAG,9720 fluorescence intensity (a.u.)
6,TTTTCCTCGCTGTACTCTTTGCTCTTGCTCGGGCTCCCGCCGGAGTCACCTAGTGCAG,11600 fluorescence intensity (a.u.)
7,TTTACGCTTTTCTTTTGTGGCTACTTTGTCAATCTTACAACGGAGTCACCTAGTGCAG,9410 fluorescence intensity (a.u.)
8,ACCGCTGCATTCTTATCTACACCTATCTCTGCAGAACCTGCGGAGTCACCTAGTGCAG,8220 fluorescence intensity (a.u.)
9,TTTTCAATACCTGGGTAGGGGCAGGTAATTGGGAGGGAATCGGAGTCACCTAGTGCAG,10400 fluorescence intensity (a.u.)
10,CACTCTGCCCTACCGCCCATCTCATCCCCATCCATCCGGTCGGAGTCACCTAGTGCAG,13400 fluorescence intensity (a.u.)
11,CACCTCCTTTCCTTGCCGCCTCCGGGAGGGACTCCAAGAACGGAGTCACCTAGTGCAG,8560 fluorescence intensity (a.u.)
12,CCTCTGTCGTCTCGTCAGTTTGCCCCTGCCCAGTTGCCCACGGAGTCACCTAGTGCAG,10900 fluorescence intensity (a.u.)
13,GATTTCTTGGCTATAGTTAATATTTGTTGCTGTAACTAACCGGAGTCACCTAGTGCAG,8090 fluorescence intensity (a.u.)
14,ACACACACACACACACACAAAACACAGAGAGAGAGAGAGACGGAGTCACCTAGTGCAG,8200 fluorescence intensity (a.u.)
15,CCCTGCCATCCAGCTCATACATTTCCTATTCAACGGTTGCCGGAGTCACCTAGTGCAG,9760 fluorescence intensity (a.u.)
16,CACACCAAACAGCACAATCTCAGTATCGGAATCATCTCACCGGAGTCACCTAGTGCAG,8950 fluorescence intensity (a.u.)
17,TTCTCGTTGTCGACGACGCCGAGTCTTTTCATCACGACGCCGGAGTCACCTAGTGCAG,9280 fluorescence intensity (a.u.)
18,GTTTAACCAGTGGAGCATTGCTTTATTTCTTCTATATCCACGGAGTCACCTAGTGCAG,10800 fluorescence intensity (a.u.)
19,ATATATATTTCATCCTCACTTAGTTCAGGTTTTTTTTTTCCGGAGTCACCTAGTGCAG,8970 fluorescence intensity (a.u.)
20,CTAGACCACATCTCCATCAACTGCACCCGTGGGGTCGGGGCGGAGTCACCTAGTGCAG,9130 fluorescence intensity (a.u.)
21,CTTCTCCTACAAAGTGCCTAGACATCACCACAAATCAACCCGGAGTCACCTAGTGCAG,8390 fluorescence intensity (a.u.)

# Part of the list above, with bars between the fields:
row | Sequence | binding signal
7 | ACTCTTTTTATTTTTGGAGGGTGCTCTATCCAAAGGCCCCCGGAGTCACCTAGTGCAG | 8380 fluorescence intensity (a.u.)
8 | TTGGCCTTTTGAAAGGCTTGGGTTATATTTGGGCTTTTATCGGAGTCACCTAGTGCAG | 9230 fluorescence intensity (a.u.)

# (listing goes on)

row,Sequence,binding signal
1,GTATTTGTCGCCAGTCTGATTTTCGCCCATTGATCGCAAACGGAGTCACCTAGTGCAG,10000 fluorescence intensity (a.u.)
2,GTAACTTTACTGTTTTTTTCAGTGTGGAGAAACTGTAACACGGAGTCACCTAGTGCAG,8170 fluorescence intensity (a.u.)
3,AGTCATTTTAGTATTTCTTACATTTATATTGATGTTAATGCGGAGTCACCTAGTGCAG,8500 fluorescence intensity (a.u.)
4,ATGCGACTGTCTTCTTTCATAATCTTTTTTTTATTTTGCTCGGAGTCACCTAGTGCAG,10800 fluorescence intensity (a.u.)
5,TTTTTTCATCGTGATTTATTTTACAACATTGGCCTTTATACGGAGTCACCTAGTGCAG,9000 fluorescence intensity (a.u.)
6,CTCTTCTCCTTTTCTTCCCTGTCATCTGTGAGCTTTTGCTCGGAGTCACCTAGTGCAG,10600 fluorescence intensity (a.u.)
7,CTTTCCACCTCTATCCGCCTTCCAGCTACTGTTGCAACTGCGGAGTCACCTAGTGCAG,11400 fluorescence intensity (a.u.)
8,GGCTTCCTCTCTTCTGCGGCCGCGCGCGATCTCCACACCTCGGAGTCACCTAGTGCAG,8040 fluorescence intensity (a.u.)
9,GTTTTTATCTCTTATTATCTGTGCTTTCCCGTTTTAATATCGGAGTCACCTAGTGCAG,11200 fluorescence intensity (a.u.)
10,TGGGACAAACTTTGACCAATACTTATTCTTTCATGGTATACGGAGTCACCTAGTGCAG,8410 fluorescence intensity (a.u.)
11,CTTCTTTTCGTTTTTCCTCGTTTTCTTTTCTCTCCATCATCGGAGTCACCTAGTGCAG,8090 fluorescence intensity (a.u.)
12,CCCACTCTCCACTCTCCACTCCACTCGCTCTCCGTTCACCCGGAGTCACCTAGTGCAG,10200 fluorescence intensity (a.u.)
13,CGTCTCACACCCTACCCTGACCGTCCGATCGGATCAACCACGGAGTCACCTAGTGCAG,9430 fluorescence intensity (a.u.)
14,CTCTTTTTTTGTTTTAACATTGAACACACTACTTTACAGCCGGAGTCACCTAGTGCAG,9180 fluorescence intensity (a.u.)
15,CATGTCACTATACTATTATATCCTATTATATCCTATAATACGGAGTCACCTAGTGCAG,8100 fluorescence intensity (a.u.)
16,TGGTGTGGCGATCCTGTGGAGTGTGGTTTGGTTTGGGAGGCGGAGTCACCTAGTGCAG,9210 fluorescence intensity (a.u.)
17,CTACGTCCAGCAGTCCGTCCATCCGTGCTACCTCATCATACGGAGTCACCTAGTGCAG,8930 fluorescence intensity (a.u.)
18,AATCACCAATTCGACATGGGCACAGAGCTCTCGTTGACTTCGGAGTCACCTAGTGCAG,11400 fluorescence intensity (a.u.)
19,CCAAGCTCCACATATATACTTCTGGTCAGCACCACTTTGACGGAGTCACCTAGTGCAG,9690 fluorescence intensity (a.u.)
20,GCCACATATTTCCAACCCTTCATTTAATTCAGGTGTCATTCGGAGTCACCTAGTGCAG,10200 fluorescence intensity (a.u.)
21,TTTTCTCTGTATCTTTTTTCTCCCTTGTTAATGATCTTTTCGGAGTCACCTAGTGCAG,10700 fluorescence intensity (a.u.)

# 4 neighbouring entries already listed, quoted:
row,Sequence,binding signal
7,AGGTTTTTTCAAAATTTTTAACACAATTGTACTACATTTTCGGAGTCACCTAGTGCAG,8240 fluorescence intensity (a.u.)
8,CCGGTCCAAAGCCTCGTTTGATCATGGTCTTTTGCCAATACGGAGTCACCTAGTGCAG,9640 fluorescence intensity (a.u.)
9,CACGTGGACCACTGTATTCACACTTTTTGATCGATAAGCACGGAGTCACCTAGTGCAG,9020 fluorescence intensity (a.u.)
10,CGCGGTCCTAAATGGGCCAGCCCACTATTTGTTTTGCCCACGGAGTCACCTAGTGCAG,8580 fluorescence intensity (a.u.)
